Source: PubChem BioAssay AID540256 (National Center for Advancing Translational Sciences (NCATS), 2011)
Where “and” joins values, the source holds several entries; their conditions need not be identical. Equal values may be shown once. The whole screen tested about 300,000 compounds, of which about 3,700 (1.2%) were called active. The shares of active, inactive and inconclusive entries below differ from those in the screen. Calls come from the whole dose curve; tested in HEK293 cells. Potencies beside an inconclusive call are fits to weak or partial responses and may not hold up.

Test: qHTS for Inhibitors of binding or entry into cells for Lassa Virus; note: nearly all actives have a fitted effect of over 50% in size
Conditions: Lassa virus pseudotype entry inhibition, cell reporter; series mostly up to 37.9 µM
Potency is the fitted concentration of half-maximal effect.

SMILES | Potency
Cc1cc(NC(=O)C(C)SCC(=O)Nc2ccc(SC(F)F)cc2)no1 (centres undefined) | inactive
COc1ccc(NC(=O)COC(=O)CNS(=O)(=O)c2ccccc2)cc1OC | inactive
O=C(Nc1sc2c(c1C(=O)NCc1cccnc1)CCCC2)c1ccco1 | inactive
CC(C)(C)NS(=O)(=O)c1ccc(NC(=O)C(Sc2ccccc2)c2ccccc2)cc1 (centres undefined) | inconclusive: 20.6 µM [inhibitor, partial curve, poor fit]
CC(=O)c1c(C)[nH]c(C(=O)N(CCc2ccccc2)Cc2ccccc2)c1C | inconclusive: 10 µM [inhibitor, partial curve, poor fit]
Cn1ccc2c(N3CCCCC3)cc3c(c21)C1CCC3C1 (centres undefined) | inactive
CCOC(=O)C1(Cc2ccc(O)cc2)NC(c2ccccc2F)C2C(=O)N(C)C(=O)C21 (centres undefined) | inconclusive: 0.0651 µM [inhibitor, full curve, poor fit]
COc1cc(NC(=O)c2cc3cc4ccc(C)cc4nc3o2)cc(OC)c1OC | inconclusive: 6.31 µM [inhibitor, full curve, poor fit]
Cc1ccc(-n2ncc(C(=O)NCc3ccco3)c2C2CCN(C(=O)OC(C)(C)C)CC2)cc1C | inconclusive: 1.41 µM [inhibitor, full curve, poor fit]
O=C(C1=C(O)C(=O)N(CC2CCCO2)C1c1ccc(Cl)cc1Cl)c1ccco1 (centres undefined) | inconclusive: 3.16 µM [inhibitor, single point]
O=C(CSc1ccc(-c2ccccn2)nn1)Nc1ccccc1 | inconclusive: 35.5 µM [inhibitor, single point]
O=C(O)c1cc(Cl)c(Cl)cc1C(=O)Nc1cccc2cccnc12 | inactive
O=C(CSc1nc(-c2cccc(F)c2)[nH]c1-c1ccccc1)Nc1ccc2c(c1)OCO2 | inconclusive: 35.5 µM [inhibitor, single point]
Nc1ncnc2occ(-c3ccc(NC(=O)Nc4cc(C(F)(F)F)ccc4F)cc3)c12 | active: 25 µM and active: 15.8 µM
O=C(CSc1nc2ccccc2nc1Cc1ccc(Cl)cc1)N1CCN(c2ccccc2)CC1 | inactive
COc1ccc(OC)c(NC(=O)CCOc2cccc(C)c2)c1 | inconclusive: 22.4 µM [inhibitor, partial curve, poor fit]
COc1ccc(NC(=O)/C=C/c2ccc(F)cc2)cn1 | inactive
CC(=O)Nc1ccccc1OCc1nnc(-c2ccccc2Cl)o1 | inactive
Cc1ccc(-c2nc(C)c(CCNC(=O)c3ccccc3Br)s2)cc1 | inconclusive: 35.5 µM [inhibitor, single point]

Exported as comma-separated lines: two of the compounds above
SMILES,Potency
CCOC(=O)C1(Cc2ccc(O)cc2)NC(c2ccccc2F)C2C(=O)N(C)C(=O)C21 (centres undefined),"inconclusive: 0.0651 µM [inhibitor, full curve, poor fit]"
COc1cc(NC(=O)c2cc3cc4ccc(C)cc4nc3o2)cc(OC)c1OC,"inconclusive: 6.31 µM [inhibitor, full curve, poor fit]"
